From PubChem BioAssay (NCATS)
The inconclusive results got no clear call from the source; some entries with a clear call stand among them for comparison. Potencies beside an inconclusive call are fits to weak or partial responses and may not hold up. Activity calls are given as the source filed them. Calls come from the whole dose curve; as a rule, active = well fitted cell-killing curve with a large enough effect; inconclusive = small, poorly fitted or top-dose-only effect; inactive = flat fitted curve, though single readings scatter.

experiment: qHTS assay to identify small molecule inhibitors of chordoma cells - UCH-2 (AID 1259356); conditions: UCH-2 chordoma viability, CellTiter-Glo ATP luminescence, 48 h; series mostly up to 46.1 µM; activity change, negative = inhibition: at the top concentration
Excerpt: NIH Chemical Genomics Center [NCGC]
Chordoma is a rare and slow growing tumor that can occur anywhere along the spine, from the base of the skull to the tailbone. Current treatment options for chordoma is surgery and radiation therapy for those who are not candidates for surgery. But chordomas tend to return in the same location or surrounding areas of the original tumor after surgery and/or radiation. Chemotherapy can slow down the progression of the tumor. As chordoma is slow growing, the general cytotoxic agents that kill fast growing cells are ineffective, and some patients have been reported to respond to molecularly targeted drugs.
NCATS Pharmaceutical Collection (NPC) containing approximately 3000 clinically approved and investigational drugs were used to screen at 15 concentrations in a chordoma cell lines, UCH-2, to identify small molecule compounds that can inhibit chordoma cell growth.
NCGC Assay Protocol Summary:
Human chordoma cell line UCH-2 was dispensed at 800 per well in 4uL of culture medium into white solid bottom 1536-well plates (Corning Life Sciences, Corning, NY) using a Multidrop Combi (Thermo Scientific, Waltham, MA) dispenser. The assay plates were incubated at 37 C and 5% CO2 for an overnight, and then 23nL of compounds dissolved in DMSO and positive control were transferred using a Pintool station (Wako, San Diego, CA). Compound treatment was followed by the addition of 1uL of the combination compounds (1uM Auranofin, 500nM each of Camptothecin, Doxorubicin, Rubitecan, and Topotecan) and assay medium to each well of the assay plates using Flying Reagent Dispenser (FRD, Aurora Discovery, San Diego, CA). The assay plates were incubated at 37 C and 5% CO2 for 48hr. Then 5uL of CellTiter-Glo reagent (Promega Corporation, Madison, WI) was added to each well of the assay plates using FRD. After 30min incubation at room temperature, the luminescence signal was quantified using a ViewLux plate reader (PerkinElmer, Shelton, CT).
% is set by controls: 0 for no effect and ±100 for the full control effect; potency is the fitted concentration of half-maximal effect.

| SMILES | Potency | activity change, negative = inhibition |
| --- | --- | --- |
| C[C@]12C=CC(=O)N[C@@H]1CC[C@@H]1[C@@H]2CC[C@]2(C)[C@@H](C(=O)Nc3cc(C(F)(F)F)ccc3C(F)(F)F)CC[C@@H]12 | inconclusive: 16.4 µM [cytotoxic, single point] |  |
| C[C@H](CCCC(C)(C)O)[C@H]1CC[C@H]2[C@@H]3CC=C4C[C@@H](O)CC[C@]4(C)[C@H]3CC[C@]12C |  | inactive: 6.05% |
| CCCCC[C@H](O)/C=C/[C@H]1[C@H](O)CC(=O)[C@@H]1CCCCCCC(=O)O |  | inactive: 3.78% [at 20.6 µM] |
| CO[C@@H]1[C@@H](O[C@@H]2O[C@H](C)[C@@H](O[C@H]3C[C@@](C)(O)[C@@H](OC(=O)CC(C)C)[C@H](C)O3)[C@H](N(C)C)[C@H]2O)[C@@H](CC=O)C[C@@H](C)C(=O)/C=C/C2OC2C[C@@H](C)OC(=O)C[C@H]1OC(C)=O (some centres not stated) | inconclusive: 18.3 µM [cytotoxic, partial curve, poor fit] |  |
| Cc1cc(CC(C)CC(C)(C)C)n(O)c(=O)c1 (configuration not stated) (tested in a mixture with another compound) | inconclusive: 29.1 µM [cytotoxic, single point] |  |
| CCCCCCOc1ccc(C(=N)N(CCCC)CCCC)c2ccccc12 | inconclusive: 29.1 µM [cytotoxic, single point] |  |
| NCCCC[C@H](N)C(=O)O |  | inactive: -13.7% |
| CCN(CC)CCOc1ccc(C(O)(Cc2ccc(Cl)cc2)c2ccc(C)cc2)cc1 (configuration not stated) | inconclusive: 25.9 µM [cytotoxic, single point] |  |
| O=[N+]([O-])c1ccc(/C=N\O)o1 |  | inactive: 0.974% |
| COc1cc(NCCCC(C)N)c2ncccc2c1 (configuration not stated) | active: 9.2 µM |  |
| CN[C@@H]1[C@@H](O)[C@@H](O[C@@H]2[C@@H](O)[C@H](O[C@H]3O[C@H](CN)[C@@H](O)[C@H](O)[C@H]3O)[C@@H](N)C[C@H]2NC(=O)C(O)CN)OC[C@]1(C)O (some centres not stated) |  | inactive: -1.47% |
| CCOC(=O)COc1ccc2c(C)c(CCN(CC)CC)c(=O)oc2c1Cl | inconclusive: 0.411 µM [cytotoxic, full curve, poor fit] |  |
| CC(=O)N/N=C/c1ccc([N+](=O)[O-])o1 | inconclusive: 36.6 µM [cytotoxic, single point] |  |
| CN(C)CC/C=C1/c2ccccc2COc2ccc(CC(=O)O)cc21 | inconclusive: 32.6 µM [cytotoxic, single point] |  |
| O=C1CCC(=O)N1CO |  | inactive: -1.74% |
| CCC(C(=O)OCCN(CC)CC)c1ccccc1 (configuration not stated) | inconclusive: 23.1 µM [cytotoxic, partial curve, poor fit] |  |

7 compounds out of the list, ordered by length of the SMILES, ascending:

| SMILES | Potency | activity change, negative = inhibition |
| --- | --- | --- |
| O=C1CCC(=O)N1CO |  | inactive: -1.74% |
| COc1cc(NCCCC(C)N)c2ncccc2c1 (configuration not stated) | active: 9.2 µM |  |
| CCC(C(=O)OCCN(CC)CC)c1ccccc1 (configuration not stated) | inconclusive: 23.1 µM [cytotoxic, partial curve, poor fit] |  |
| Cc1cc(CC(C)CC(C)(C)C)n(O)c(=O)c1 (configuration not stated) (tested in a mixture with another compound) | inconclusive: 29.1 µM [cytotoxic, single point] |  |
| C[C@H](CCCC(C)(C)O)[C@H]1CC[C@H]2[C@@H]3CC=C4C[C@@H](O)CC[C@]4(C)[C@H]3CC[C@]12C |  | inactive: 6.05% |
| C[C@]12C=CC(=O)N[C@@H]1CC[C@@H]1[C@@H]2CC[C@]2(C)[C@@H](C(=O)Nc3cc(C(F)(F)F)ccc3C(F)(F)F)CC[C@@H]12 | inconclusive: 16.4 µM [cytotoxic, single point] |  |
| CN[C@@H]1[C@@H](O)[C@@H](O[C@@H]2[C@@H](O)[C@H](O[C@H]3O[C@H](CN)[C@@H](O)[C@H](O)[C@H]3O)[C@@H](N)C[C@H]2NC(=O)C(O)CN)OC[C@]1(C)O (some centres not stated) |  | inactive: -1.47% |

(list continues)

| SMILES | Potency | activity change, negative = inhibition |
| --- | --- | --- |
| Nc1c(N=Nc2ccc(-c3ccc(N=Nc4cc(S(=O)(=O)O)c5ccccc5c4N)cc3)cc2)cc(S(=O)(=O)O)c2ccccc12 | inconclusive: 25.9 µM [cytotoxic, single point] |  |
| CC(C)(C)C(=O)OCOC(=O)[C@@H]1N2C(=O)[C@@H](N=CN3CCCCCC3)[C@H]2SC1(C)C | inconclusive: 15.6 µM [cytotoxic, single point] |  |
| CCN(CC)CCOC(=O)c1ccc(N)cc1 |  | inactive: 2.7% [at 20.6 µM] |
| O=C(O)[C@H]1C(=CCO)O[C@H]2CC(=O)N12 |  | inactive: -4.09% |
| CCOC(=O)c1cccc(N)c1 | inconclusive: 29.1 µM [cytotoxic, single point] |  |
| O=C(CCCN1CCC(C(=O)c2ccc(F)cc2)CC1)c1ccc(F)cc1 |  | inactive: 7.35% |
| CC(C(=O)O)c1ccc(N2Cc3ccccc3C2=O)cc1 (configuration not stated) | inconclusive: 36.6 µM [cytotoxic, single point] |  |
| CN1CCC(CN2c3ccccc3Sc3ccccc32)C1 (configuration not stated) | inconclusive: 41.1 µM [cytotoxic, single point] |  |
| COCC(=O)Nc1c(I)c(C(=O)NCC(O)CO)c(I)c(C(=O)N(C)CC(O)CO)c1I (configuration not stated) |  | inactive: 10.2% [at 20.6 µM] |
| O=C(O)/C=C/c1ccc(Cn2ccnc2)cc1 |  | inactive: 6.72% [at 20.6 µM] |
| NC(N)=NCC1COc2ccccc2O1 (configuration not stated) |  | inactive: -3.02% |
| NC/C=C/C(=O)O |  | inactive: 5.04% |
| O=C(O)CCCc1ccccc1 |  | inactive: 5.62% |
| FC1(F)C(F)(F)C(F)(F)C2(F)C(F)(F)C(F)(F)C(F)(F)C(F)(F)C2(F)C1(F)F (configuration not stated) |  | inactive: -0.619% |
| Cc1ccccc1CNc1ncnc2c1ncn2[C@@H]1O[C@H](CO)[C@@H](O)[C@H]1O | inconclusive: 25.9 µM [cytotoxic, single point] |  |
| CC1=C(C(=O)OC(C)C)C(c2cccc([N+](=O)[O-])c2)C(C(=O)OC2CN(C(c3ccccc3)c3ccccc3)C2)=C(N)N1 (configuration not stated) |  | inactive: 26.9% |
